Test results: PMC7819943, “Rice protein-binding microarrays: a tool to detect cis-acting elements near promoter regions in rice”
This is one part of the list.

Target: T1, OsSMF1 (Oryza sativa, UniProt Q6ZLB0 1-436)
T1 sequence: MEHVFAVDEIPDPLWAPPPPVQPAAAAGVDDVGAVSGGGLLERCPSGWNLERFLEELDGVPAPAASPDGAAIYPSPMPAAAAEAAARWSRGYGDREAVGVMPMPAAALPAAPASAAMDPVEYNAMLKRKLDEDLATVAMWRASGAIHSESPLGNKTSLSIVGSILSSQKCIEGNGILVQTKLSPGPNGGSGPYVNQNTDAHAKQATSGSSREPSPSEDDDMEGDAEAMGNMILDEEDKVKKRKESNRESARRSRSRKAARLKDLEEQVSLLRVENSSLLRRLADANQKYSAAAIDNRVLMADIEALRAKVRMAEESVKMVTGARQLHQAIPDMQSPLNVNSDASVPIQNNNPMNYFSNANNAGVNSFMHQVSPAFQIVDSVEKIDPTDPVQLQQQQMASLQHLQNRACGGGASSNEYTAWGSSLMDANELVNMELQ
Assay: protein-binding microarray (RPBM); PBS, 2% BSA, 51.3 ng/ul salmon testes DNA, 50 uM zinc acetate, 200 nM TF, 25 C, 1 h; high values mean tight binding
Conditions: protein: recombinant; tags: N-terminal polyhistidine and DsRed monomer fusion (pET32a); chain copies: 2; label: CyDye5-dUTP incorporated in the synthesized complementary strand; 3' TTTTT single-stranded linker to array surface; dsDNA, one strand shown
Procedure, shortened: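 The binding signal is fluorescence intensity per feature, in arbitrary units, read on an Axon 4000B scanner. Polyhistidine- and DsRed-tagged transcription factors (N-terminal fusions) from E. coli BL21-CodonPlus were purified on Ni–NTA and applied at 200 nM for 1 h at 25 °C to a double-stranded, BSA-blocked custom Agilent array in buffer with 50 µM zinc acetate.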

Sequence | binding signal
CGAGTCCATAAGGGAGTACGTCGCCGAGGCGGCGCGCCGGCGGAGTCACCTAGTGCAG | 23000 fluorescence intensity (a.u.)
GCAACTTCCATTGACTGGGAATCAGGTTGCATAGTAGCAGCGGAGTCACCTAGTGCAG | 3360 fluorescence intensity (a.u.)
GCAGAAGCTGGCAAATAATCAATCGTCAGCAACAGGTAGACGGAGTCACCTAGTGCAG | 4330 fluorescence intensity (a.u.)
GCCCTGTTCCCTGCAGAGAATCATTATATACTCCCTCCAACGGAGTCACCTAGTGCAG | 48100 fluorescence intensity (a.u.)
CTTGACTTGTAACCCCTAAGCATCTTTTCTCATCAGGGTCCGGAGTCACCTAGTGCAG | 5290 fluorescence intensity (a.u.)
GTCTAGCGATCTAGTTGCTGATTTACTGGCCTCTTTACTCCGGAGTCACCTAGTGCAG | 3660 fluorescence intensity (a.u.)
AAAACATTTTCTCGACCTTGTTGCTGAGCTCCACCCGTAGCGGAGTCACCTAGTGCAG | 3840 fluorescence intensity (a.u.)
TTCTGTGCTGTTCTTGACTGACCTCTCATCATTCAGAGCACGGAGTCACCTAGTGCAG | 3420 fluorescence intensity (a.u.)
TTCACAACACTTGCATGAACTCAGGTGTCAATGGTAAGGTCGGAGTCACCTAGTGCAG | 3560 fluorescence intensity (a.u.)
CGAAACAGCTGGAACATTTTGCGCTCCCTCCAGCCCACCCCGGAGTCACCTAGTGCAG | 4400 fluorescence intensity (a.u.)
TTCTTCTTCATCCAGCTGCATGCCACGGACTGCAATCTATCGGAGTCACCTAGTGCAG | 4090 fluorescence intensity (a.u.)
TGCAGCGCCCTCAGCGTTTTGCGCTGCCGTGGCCATCACGCGGAGTCACCTAGTGCAG | 4300 fluorescence intensity (a.u.)
TGTGACGAACGCATGCATGCACGCGCGCGTACGTGGTGGGCGGAGTCACCTAGTGCAG | 5150 fluorescence intensity (a.u.)
GACATCAAAGTAAACAGGCCCGAAGTTTAGCTATCCAAATCGGAGTCACCTAGTGCAG | 21600 fluorescence intensity (a.u.)
AGGGACTAAACTTTAGTCTCTGTGACATCAGATGTTTGGACGGAGTCACCTAGTGCAG | 3690 fluorescence intensity (a.u.)
GAGATAGTATTAGTTGTTGTTGTAGTCACAATGGTGAATGCGGAGTCACCTAGTGCAG | 3280 fluorescence intensity (a.u.)
CCGGGGTCTCCACCGTCGGCTTCTCCGCCAGCCACCGAATCGGAGTCACCTAGTGCAG | 4580 fluorescence intensity (a.u.)
CTTACCAAAATTTTGTAAGGTTTATTTTGGCTACAATCTGCGGAGTCACCTAGTGCAG | 3610 fluorescence intensity (a.u.)
TTTAATACATGGGCCGCCCTTTGCCGTGGCGCGTCACCCACGGAGTCACCTAGTGCAG | 5840 fluorescence intensity (a.u.)
AAATATCTTCTCGATCGGTCTACAGTTCTGTGGGTGGGGACGGAGTCACCTAGTGCAG | 4120 fluorescence intensity (a.u.)
TATAGTGAGTGATGAACCTATCATCGCTTACTCCCACCACCGGAGTCACCTAGTGCAG | 3980 fluorescence intensity (a.u.)

13 entries from above, reformatted:
Sequence,binding signal
TTCACAACACTTGCATGAACTCAGGTGTCAATGGTAAGGTCGGAGTCACCTAGTGCAG,3560 fluorescence intensity (a.u.)
CGAAACAGCTGGAACATTTTGCGCTCCCTCCAGCCCACCCCGGAGTCACCTAGTGCAG,4400 fluorescence intensity (a.u.)
TTCTTCTTCATCCAGCTGCATGCCACGGACTGCAATCTATCGGAGTCACCTAGTGCAG,4090 fluorescence intensity (a.u.)
TGCAGCGCCCTCAGCGTTTTGCGCTGCCGTGGCCATCACGCGGAGTCACCTAGTGCAG,4300 fluorescence intensity (a.u.)
TGTGACGAACGCATGCATGCACGCGCGCGTACGTGGTGGGCGGAGTCACCTAGTGCAG,5150 fluorescence intensity (a.u.)
GACATCAAAGTAAACAGGCCCGAAGTTTAGCTATCCAAATCGGAGTCACCTAGTGCAG,21600 fluorescence intensity (a.u.)
AGGGACTAAACTTTAGTCTCTGTGACATCAGATGTTTGGACGGAGTCACCTAGTGCAG,3690 fluorescence intensity (a.u.)
GAGATAGTATTAGTTGTTGTTGTAGTCACAATGGTGAATGCGGAGTCACCTAGTGCAG,3280 fluorescence intensity (a.u.)
CCGGGGTCTCCACCGTCGGCTTCTCCGCCAGCCACCGAATCGGAGTCACCTAGTGCAG,4580 fluorescence intensity (a.u.)
CTTACCAAAATTTTGTAAGGTTTATTTTGGCTACAATCTGCGGAGTCACCTAGTGCAG,3610 fluorescence intensity (a.u.)
TTTAATACATGGGCCGCCCTTTGCCGTGGCGCGTCACCCACGGAGTCACCTAGTGCAG,5840 fluorescence intensity (a.u.)
AAATATCTTCTCGATCGGTCTACAGTTCTGTGGGTGGGGACGGAGTCACCTAGTGCAG,4120 fluorescence intensity (a.u.)
TATAGTGAGTGATGAACCTATCATCGCTTACTCCCACCACCGGAGTCACCTAGTGCAG,3980 fluorescence intensity (a.u.)

Going on with the list.

Sequence | binding signal
TCAGGATGTGAATGTTAATGTATGCAATGCACGCAGGCAGCGGAGTCACCTAGTGCAG | 6660 fluorescence intensity (a.u.)
AAGTATGCGCTGGCAAACCATAAGTCTAGTGGGGATTCTGCGGAGTCACCTAGTGCAG | 4140 fluorescence intensity (a.u.)
TAAATTCTTGTTAATACTGACGTGTTATGTTATGAGTGCACGGAGTCACCTAGTGCAG | 4280 fluorescence intensity (a.u.)
TGCATGTGACCCGATCGTTGAATGCTTGAACACCGCGTGACGGAGTCACCTAGTGCAG | 3280 fluorescence intensity (a.u.)
GCATGCACGGGATTAACTAGAACCACATATGCCCTCGTTGCGGAGTCACCTAGTGCAG | 3430 fluorescence intensity (a.u.)
TGTGTGTGTGTGTGTGTGTGTGTGTGTGTGTGTGTGTGTGCGGAGTCACCTAGTGCAG | 8180 fluorescence intensity (a.u.)
TTAATCTATTCATGAATCATGATAGGTTTCACTATATATTCGGAGTCACCTAGTGCAG | 3150 fluorescence intensity (a.u.)
TCTAGTATTCTAGTGTGTATGGGCATCAGCATCCCTGGACCGGAGTCACCTAGTGCAG | 3640 fluorescence intensity (a.u.)
TTAAGGGACACATGGTGTGAGTGTAGTGGTGTGTGTACGCCGGAGTCACCTAGTGCAG | 3840 fluorescence intensity (a.u.)
CGAGGTTTCTGTTTGTTAATTACTTACCGTGACAGTGAGCCGGAGTCACCTAGTGCAG | 3440 fluorescence intensity (a.u.)
CAGGTACCAGGTATACTAGGTATCAGGATTAGCCTATTAGCGGAGTCACCTAGTGCAG | 4230 fluorescence intensity (a.u.)
CGGCGCCGGGAGCGCCGCGGTGGAGGAGGCAGAGCAGCGACGGAGTCACCTAGTGCAG | 28200 fluorescence intensity (a.u.)
CTATCCGGTTTTACAGTTAAGGGTGACGAATTAGATTCGGCGGAGTCACCTAGTGCAG | 3600 fluorescence intensity (a.u.)
CAAGCCTCACACTGTTTTGTTGCACGATGCGAGGTTCGCGCGGAGTCACCTAGTGCAG | 3190 fluorescence intensity (a.u.)
GTACAACTCTGCATACAACGTACACATACGCGTACCAACCCGGAGTCACCTAGTGCAG | 3490 fluorescence intensity (a.u.)
ATTTGTGATGTGGATTTGGGGTGTTACTTTGATTTGGGGACGGAGTCACCTAGTGCAG | 5820 fluorescence intensity (a.u.)
TCAGCCATGCGCCGCTGACACGGAGGGCCCAGGAGCAAGACGGAGTCACCTAGTGCAG | 3430 fluorescence intensity (a.u.)
GTATATATAGTCATTGACATCACACACACATTACGGTCATCGGAGTCACCTAGTGCAG | 3580 fluorescence intensity (a.u.)
AGCATGGATCCAACAGCCTCGACATGTCAGCAAATAGTTTCGGAGTCACCTAGTGCAG | 7060 fluorescence intensity (a.u.)
GGACCCATATATCATAGACACATGAGAACCCACATGTTACCGGAGTCACCTAGTGCAG | 31100 fluorescence intensity (a.u.)
GCTGTGTATGCCCACTTGTAAATATAGAGGCTGATGTTTACGGAGTCACCTAGTGCAG | 3690 fluorescence intensity (a.u.)
